In the assay the target is Staphylococcus aureus thioredoxin (Trx), wild type (Staphylococcus aureus) (UniProt P0A0K6). The experiment in a line: SEC; both purified. Background: Size exclusion chromatography separates by hydrodynamic size, large species first.

Results are given in words; binding and its absence hold for the method and conditions named.

B1: Staphylococcus aureus thioredoxin (Trx), wild type (enzyme, UniProt P0A0K6 1-104)
chain: MAIVKVTDADFDSKVESGVQLVDFWATWCGPCKMIAPVLEELAADYEGKADILKLDVDENPSTAAKYEVMSIPTLIVFKDGQPVDKVVGFQPKENLAEVLDKHL
B1: the binding result is listed as “no binding”.

These data come from PMC4678829.
